{"source": "PubChem BioAssay AID662", "about": "(National Center for Advancing Translational Sciences (NCATS), 2007)", "note": "Some of the results follow. The main result of the screen is listed elsewhere. These columns were measured beside it and carry no call. Compounds called inactive in the main read-out are mostly missing here. Words in brackets tell the shape of the fitted curve; partial curves, single points and poor fits give uncertain potencies."}
{"assay": "Cell signaling CRE-BLA (Fsk stim)", "settings": "CHO CRE-bla reporter (cAMP response element driving beta-lactamase), forskolin EC10, beta-lactamase ratio; measured here: 460 nm blue channel", "procedure,_shortened": "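Modulation of forskolin-driven signalling is measured in CHO cells carrying a CRE-controlled beta-lactamase reporter. Cells are stimulated with EC10 NKH 477 in the presence of titrated compound for 3 h at 37 °C, then loaded with CCF4 for 2 h at room temperature.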"}
{"compound": "C=CCn1c(SCCCCCC)nc(O)cc1=O", "AC50": "6.31 µM [rising, partial curve]"}
{"compound": "COc1ccc(COC(=O)C2=C(C)NC(=O)NC2c2ccc(O)c(OC)c2)cc1", "note": "(centres undefined)", "AC50": "5.01 µM [rising, single point]"}
{"compound": "COc1ccc(C2=Nn3c(nnc3-c3ccccc3OC)SC2)cc1OC", "AC50": "0.501 µM [rising, full curve]"}
{"compound": "CCOC(=O)C1CCCN(C(=O)Cn2nc(CC)n3c(cc4sccc43)c2=O)C1", "note": "(centres undefined)", "AC50": "12.6 µM [rising, single point]"}
{"compound": "O=c1c(Cc2ccccc2O)c(O)nc2n1CCCS2", "AC50": "6.31 µM [falling, partial curve]"}
{"compound": "O=C(NC1CCS(=O)(=O)C1)c1ccc(-c2ccc(Br)cc2)o1", "note": "(centres undefined)", "AC50": "10 µM [rising, single point]"}
{"compound": "CCn1c(C)nc2c(=O)oc3ccccc3c21", "AC50": "10 µM [rising, partial curve]"}
{"compound": "CC1CCCC(NC(=O)CC2Nc3ccccc3NC2=O)C1C", "note": "(centres undefined)", "AC50": "15.8 µM [rising, single point]"}
{"compound": "O=S(=O)(c1ccc(Oc2ncnc3scc(-c4ccccc4)c23)cc1)N1CCOCC1", "AC50": "2.51 µM [rising, single point]"}
{"compound": "CC(C)(C)c1ccccc1OCC(=O)NCCC(=O)O", "AC50": "3.98 µM [falling, single point]"}
{"compound": "Cc1oc(-c2cc(Cl)ccc2Cl)cc1-c1nn2c(C)nnc2s1", "AC50": "0.00398 µM [falling, full curve]"}
{"compound": "Cn1c(=O)c(C(=O)Nc2ncccc2O)c(O)c2ccccc21", "AC50": "3.98 µM [falling, single point]"}
{"compound": "O=c1c(-c2ccc(Cl)cc2)nc2cnc(Oc3ccccc3)nc2n1C1CC1", "AC50": "15.8 µM [rising, partial curve]"}
{"compound": "CN(C)c1ncc2nc(-c3ccc(Cl)cc3)c(=O)n(C)c2n1", "AC50": "2.51 µM [rising, partial curve]"}
{"compound": "COc1cc2c(cc1OC)CN(C(=O)C(C)(C)C)CC2", "AC50": "10 µM [rising, single point]"}
{"compound": "CC1=C(C#N)C(c2cn(-c3ccccc3)nc2-c2cccs2)C(C#N)=C(C)N1", "AC50": "3.98 µM [falling, partial curve]"}
{"compound": "CC(C)CCn1c(CN2CCN(C(=O)c3ccco3)CC2)nc2c1c(=O)n(C)c(=O)n2C", "AC50": "15.8 µM [rising, partial curve]"}
{"compound": "C=CCOC(=O)C1=C(C)N=C2SCCC(=O)N2C1c1cccs1", "note": "(centres undefined)", "AC50": "20 µM [rising, single point]"}
{"compound": "Cn1c(C(=O)Nc2ccc3c(c2)OCCO3)cc2sccc21", "AC50": "25.1 µM [falling, single point]"}
{"compound": "O=c1c(-c2cc(F)cc(F)c2)nc2cncnc2n1Cc1ccccc1Cl", "AC50": "10 µM [rising, partial curve]"}
{"compound": "CCOc1ccccc1NC(=O)c1cccc2c1C(=O)N(CCOC)C2", "AC50": "10 µM [rising, single point]"}
{"compound": "Cc1cc(Nc2cccc(F)c2)n2ncnc2n1", "AC50": "12.6 µM [rising, single point]"}
{"compound": "COc1ccc(-c2cc(C(=O)O)c(C)o2)cc1OC", "AC50": "12.6 µM [rising, single point]"}
{"compound": "COc1cccc(-c2nnc(Nc3nc4c(F)cccc4s3)o2)c1", "AC50": "1 µM [rising, single point]"}
{"compound": "N#CCc1c(C#N)c(N)nc(N2CCN(S(=O)(=O)c3ccccc3)CC2)c1C#N", "AC50": "12.6 µM [rising, partial curve]"}
{"compound": "N/C(CSc1nc(-c2ccccc2)c(-c2ccccc2)o1)=N\\O", "AC50": "12.6 µM [rising, partial curve]"}
{"compound": "CCOC(=O)C1CCCN(C(=O)c2cnn3c(C(F)(F)F)cc(-c4ccccc4)nc23)C1", "note": "(centres undefined)", "AC50": "15.8 µM [rising, single point]"}
{"compound": "CC(=O)Nc1cc(C(=O)O)ccc1S(=O)(=O)c1ccc(C)cc1", "AC50": "5.01 µM [falling, single point]"}
{"compound": "CC(C)(C)c1cc(C(=O)O)c(CN2CCCCC2)o1", "AC50": "0.01 µM [falling, partial curve, poor fit]"}
{"compound": "CCOc1ccc2c(c1)N(C(=O)CN1C(=O)CCC1=O)C(C)(C)C=C2C", "AC50": "25.1 µM [falling, single point]"}
{"compound": "COc1ccc(NC(=O)C2CCCN2S(=O)(=O)c2ccc3c(c2)CCC(=O)N3)cc1Cl", "note": "(centres undefined)", "AC50": "12.6 µM [rising, single point]"}
{"compound": "CNC(=O)c1cc2c(=O)n3cccc(C)c3nc2n(C(C)C)c1=N", "AC50": "10 µM [rising, partial curve]"}
{"compound": "Cc1nnc(NC(=O)c2ccc3ccccc3c2)o1", "AC50": "3.16 µM [rising, single point]"}
{"compound": "Cc1noc(C)c1-c1ccc2ncnc(NC3CC3)c2c1", "AC50": "3.98 µM [rising, full curve]"}
{"compound": "Cc1cc2c(c(=O)n1C)C(Cc1ccccc1)C(C#N)=C(N)O2", "note": "(centres undefined)", "AC50": "12.6 µM [rising, partial curve]"}
{"compound": "CCCSc1nnc(Cc2cc(=O)[nH]c(=O)[nH]2)n1-c1cc(C)ccc1C", "AC50": "5.01 µM [falling, single point]"}
{"compound": "CCN1C(=O)c2ccccc2S(=O)c2ccc(C(=O)NCCCN3CCCC3=O)cc21", "note": "(centres undefined)", "AC50": "25.1 µM [rising, single point]"}
{"compound": "Cc1nc2nc(C)c(CCC(=O)NCCC3=CCCCC3)c(C)n2n1", "AC50": "3.98 µM [falling, single point]"}
{"compound": "O=C(CSc1nc2ccccc2c(=O)n1NC(=O)Cc1ccccc1)NCc1ccco1", "AC50": "12.6 µM [falling, single point]"}
{"compound": "Cc1nc(NCC2CCCO2)c2oc3ccccc3c2n1", "note": "(centres undefined)", "AC50": "10 µM [rising, single point]"}
{"compound": "COc1ccc(N=c2oc3c(OC)cccc3cc2C(=O)NCc2ccco2)cc1OC", "AC50": "6.31 µM [rising, partial curve]"}
{"compound": "Cc1cc(C)n(CC(=O)NCc2cc(-c3nn(C)c(=O)c4ccccc34)ccc2C)n1", "AC50": "25.1 µM [rising, single point]"}
{"compound": "CCOc1ccc(-n2cc(C(=O)N3CCCCCC3)c3cc(OC)c(OC)cc3c2=O)cc1", "AC50": "10 µM [rising, single point]"}
{"compound": "CCOc1ccc2nc(NC(=O)CSc3nc4c(c(=O)n(C)c(=O)n4C)n3C(C)C)sc2c1", "AC50": "3.16 µM [rising, full curve]"}
{"compound": "CCOc1ccc(-c2n[nH]c(C)c2Oc2ccccc2OC)c(O)c1", "AC50": "3.16 µM [falling, partial curve]"}
{"compound": "CCOC(=O)c1cc(NC(=O)Nc2ccc(OC)c(OC)c2)c(C)nc1C", "AC50": "10 µM [rising, single point]"}
{"compound": "Cc1nc2cc(C(F)(F)F)ccc2n1C1CCN(CC(=O)NC(C)(C)C)CC1", "AC50": "10 µM [rising, single point]"}
{"compound": "COc1ccccc1N1CCN(C(=O)c2ccccc2Oc2ccccc2)CC1", "AC50": "6.31 µM [rising, partial curve, poor fit]"}
{"compound": "CCCCNC(=O)c1ccc2nc(-c3ccco3)c(-c3ccco3)nc2c1", "AC50": "12.6 µM [rising, partial curve]"}
{"compound": "O=c1cnc2cnc(N3CCOCC3)nc2n1Cc1cccs1", "AC50": "20 µM [rising, partial curve]"}
{"compound": "Cc1nc2cnc(N(C)C)nc2n(Cc2cccs2)c1=O", "AC50": "12.6 µM [rising, partial curve]"}
{"compound": "CC1=C(C(=O)OCc2ccc3c(c2)OCO3)C(c2ccc(Cl)cc2)NC(=O)N1", "note": "(centres undefined)", "AC50": "0.0794 µM [falling, full curve]"}
{"compound": "CCN(CC)CCn1c2ccccc2c2nc(C)sc21", "AC50": "10 µM [rising, single point]"}
{"compound": "C[N+]1(C)CCC(OC(=O)C(c2ccccc2)c2ccccc2)CC1", "AC50": "12.6 µM [falling, single point]"}
{"compound": "CC(C)C(NC(=O)C1CCCCC1)C(=O)NCc1ccccn1", "note": "(centres undefined)", "AC50": "0.00398 µM [falling, full curve, poor fit]"}
{"compound": "COc1cccc(-c2nc(NCCc3c[nH]c4ccc(OC)cc34)c3ccccc3n2)c1", "AC50": "1 µM [falling, single point]"}
{"compound": "c1cncc(-c2nn[nH]n2)c1", "AC50": "12.6 µM [rising, single point]"}
{"compound": "O=C(Nc1nnc(C2CC2)s1)C1Cc2ccccc2CN1S(=O)(=O)c1cccs1", "note": "(centres undefined)", "AC50": "0.316 µM [falling, full curve, poor fit]"}
{"compound": "COc1ccc(-c2noc(CCCOc3ccccc3)n2)cc1OC", "AC50": "10 µM [rising, single point]"}
{"compound": "CC(=O)Oc1ccccc1C(=O)Nc1ncc([N+](=O)[O-])s1", "AC50": "3.16 µM [falling, full curve]"}
{"compound": "Cc1[nH]ccc2c1[nH]c1cc(=O)ccc12", "AC50": "25.1 µM [falling, single point]"}
{"compound": "CC(=O)C1=C(C)NC(SCC(=O)c2ccc(Cl)cc2)=C(C#N)C1c1ccco1", "note": "(centres undefined)", "AC50": "5.01 µM [rising, partial curve]"}
{"compound": "Cc1nn(C)cc1CN(C)C(=O)c1cc2nc(-c3ccco3)cc(C(F)(F)F)n2n1", "AC50": "12.6 µM [rising, partial curve]"}
{"compound": "NC(=O)c1oc2ccccc2c1NC(=O)c1ccco1", "AC50": "1.58 µM [rising, full curve, poor fit]"}
{"compound": "Oc1cc(O)c2c(c1)O[C@H](c1ccc(O)c(O)c1)[C@@H](O)C2", "AC50": "31.6 µM [falling, single point]"}
{"compound": "Cc1ccccc1OCC(O)Cn1c(SC(C)C)nc2c1c(=O)[nH]c(=O)n2C", "note": "(centres undefined)", "AC50": "10 µM [rising, partial curve]"}
{"compound": "COC(=O)c1ccc(C)c(NS(=O)(=O)c2ccc(OC)cc2)c1", "AC50": "0.316 µM [rising, full curve]"}
{"compound": "O=CN1CC(=O)N(c2ccccc2)c2c([nH]c3ccccc23)C1", "AC50": "10 µM [rising, single point]"}
{"compound": "CN(C)c1ccc(C2(c3ccc(N(C)C)cc3)OC(=O)c3cc(N(C)C)ccc32)cc1", "AC50": "31.6 µM [rising, single point]"}
